Results on 21 compounds are retold here after PubChem BioAssay AID720706 (Broad Institute, 2013).

Some of the results follow. Some of these compounds have results that are not shown, active ones among them.

The nature of the experiment: reduced GFP signal of wild-type E. coli, primary screen, bacterial rRNA inhibitor project, GFP/RFP fluorescence, OD600, single point (AID 720706). As to conditions: E. coli WT GFP vs humanized-ribosome RFP mutants, 24 h; OD600 change: measured here: OD600 growth, DMSO median 0, no signal -100; RFP signal change: measured here: RFP humanized mutant strains, DMSO median 0, no signal -100, concentration not given here.
Consider `CN1[C@@H]2CC[C@H]1CC(OC(=O)C(O)(c1ccccc1)c1ccccc1)C2` (some centres not stated), for which the OD600 change worked out at 6.47% and the RFP signal change was determined as 0.26%.
The like results for `O=C(NCC1(N2CCCCC2)CCCCC1)c1cc([N+](=O)[O-])ccc1Cl` were, in that order, 2.02% and 4.16%.
For the compound `Cc1ccc(C(=O)NCC2(N3CCCCC3)CCCCC2)cc1`, the OD600 change came out at 8.3% and the RFP signal change is -2.77%.
The like results for `CCN(CC)CC(C)C(C)OC(=O)C(O)(c1ccccc1)c1ccccc1` (configuration not stated) were, in that order, 6.71% and -2.32%.
The like results for `COc1cc(SC)ccc1C(=O)NCC1(N(C)C)CCCCC1` were, in that order, 15.4% and -1.63%.
Turning to `Cc1ccccc1C(=O)NCC1(N2CCCCC2)CCCCC1`, the OD600 change was -7.96% and the RFP signal change is 0.97%.
The like results for `CN(C)c1ccc(C(=O)NCC2(N(C)C)CCCCC2)cc1` were, in that order, 14.2% and -3.84%.
In the case of `COc1ccc(C(=O)NCC2(N(C)C)CCCCC2)cc1`, the OD600 change was 8.11% and the RFP signal change was -3.68%.
For the compound `Cc1cc(C(=O)NCC2(N3CCCCC3)CCCCC2)ccc1[N+](=O)[O-]`, the OD600 change amounted to 13.1% and the RFP signal change is -2.5%.
The like results for `O=C(NCC1(N2CCCCC2)CCCCC1)c1cccc(Br)c1` were, in that order, 2.94% and 0.467%.
Consider `C=CCN1CCN(CCOC(=O)C(O)(c2ccccc2)c2ccccc2)CC1`, for which the OD600 change is 13% and the RFP signal change is 2.3%.
For `O=C(NCC1(N2CCCCC2)CCCCC1)c1cc(F)c(F)cc1Cl`, the OD600 change is -19.9% and the RFP signal change is -3.39%.
The like results for `COc1cc(C(=O)NCC2(N(C)C)CCCCC2)c([N+](=O)[O-])cc1OC` were, in that order, 20.3% and 0.0695%.
The like results for `CN(C)C1(CNC(=O)c2ccc(Br)cc2)CCCCC1` were, in that order, 6.25% and -1.74%.
The like results for `O=C(NCC1(N2CCCCC2)CCCCC1)c1cccc(Cl)c1` were, in that order, 3.77% and 0.61%.
As to `COc1cccc(C(=O)NCC2(N3CCCCC3)CCCCC2)c1`, the OD600 change was found to be 9.38% and the RFP signal change is 1.02%.
The like results for `COc1ccc(Cl)cc1C(=O)NCC1(N(C)C)CCCCC1` were, in that order, 17.8% and 0.975%.
As to `CC(C)Oc1ccc(C(=O)NCC2(N(C)C)CCCCC2)cc1`, the OD600 change turned out to be 18.6% and the RFP signal change amounted to 1.69%.
For the compound `O=C(OCCN1CCCC1)C(O)(c1ccccc1)c1ccccc1`, the OD600 change came to 7.68% and the RFP signal change was -0.425%.
For the compound `C=C(C)C#CC(O)(C(=O)OC1CCN(C)CC1)c1ccccc1` (configuration not stated), the OD600 change was 11.2% and the RFP signal change worked out at 2.83%.
The like results for `COc1ccc(Br)c(C(=O)NCC2(N3CCCCC3)CCCCC2)c1` were, in that order, 3.31% and -0.935%.
